The subject of the assay is L1210 leukemia ip in BDF1 mice, survival T/C. The experiment in a line: NCI In Vivo Anticancer Drug Screen. Data for tumor model L1210 Leukemia (intraperitoneal) in B6D2F1 (BDF1) mice. The note with it: T/C endpoint: mean survival time, higher T/C = longer survival.
Setting [1] is: dose: 50.0 mg/kg/injection, schedule: Q04DX003 (ip), vehicle: saline.
Where [2] appears, read: dose: 100.0 mg/kg/injection, schedule: Q04DX003 (ip), vehicle: Klucel (hydroxypropylcellulose) (HPC).
Where [3] appears, read: dose: 400.0 mg/kg/injection, schedule: Q04DX003 (ip), vehicle: Klucel (hydroxypropylcellulose) (HPC).
Setting [4] is: dose: 200.0 mg/kg/injection, schedule: Q01DX009 (ip), vehicle: saline with Tween-80.
[5] abbreviates: dose: 300.0 mg/kg/injection, schedule: Q01DX001 (ip), vehicle: saline.
[6] abbreviates: dose: 400.0 mg/kg/injection, schedule: Q04DX003 (ip), vehicle: saline.
Where [7] appears, read: dose: 400.0 mg/kg/injection, schedule: Q01DX001 (ip), vehicle: saline.
Setting [8] is: dose: 80.0 mg/kg/injection, schedule: Q01DX001 (ip), vehicle: saline.
Setting [9] is: dose: 400.0 mg/kg/injection, schedule: Q01DX009 (ip), vehicle: saline with Tween-80.

Molecules are shown by their SMILES. The list shows only some results of the screen, not a fair sample: it gathers tests that were run many times, whatever their T/C, doses with no T/C, and many T/C values between a quarter and a half above the control. Further doses and runs are listed elsewhere. T/C: endpoint of the treated group in % of that of the vehicle group. Some doses have a count of surviving animals in place of a T/C: the source files T/C as zero there, which appears to mark a toxic dose or a test without result, not a measured value. Some survivor counts are full or nearly so, which does not show that the dose was tolerated: the source hardly ever lists a survival T/C far under the control, and the zero likely stands for such cases as well. Survivors were counted at the toxicity check, usually on the fifth day, unless a day is given; later deaths do not show. Schedules are NCI's codes, read here as Q, the interval in days (D) or hours (H), X, the number of doses. Some schedules carry Z or #; the key to these is not given. Where survival is the endpoint, this PubChem deposit counts one and a half times the control or more as active, and values a quarter to a half above the control carry no call in these data; other NCI protocols may use other cut-offs. Some T/C values are followed by the survivors on the day toxicity was checked, most often the fifth; without a count, all were alive then. Some doses were run more than once; the results are listed from low to high.

`O=S1OCC2(CO1)COS(=O)OC2` (stereo not drawn): the survivor count is given as 0 of 6 (dose: 6.25 mg/kg/injection, schedule: Q01DX009 (ip), vehicle: saline); 0 of 3 (dose: 12.5 mg/kg/injection, schedule: Q01DX001 (ip), vehicle: saline with Tween-80); 0 of 6 (dose: 12.5 mg/kg/injection, schedule: Q04DX003 (ip), vehicle: saline); 0 of 3 (dose: 25.0 mg/kg/injection, schedule: Q01DX001 (ip), vehicle: saline with Tween-80); 0 of 6 (dose: 25.0 mg/kg/injection, schedule: Q04DX003 (ip), vehicle: saline); 0 of 3 (dose: 50.0 mg/kg/injection, schedule: Q01DX001 (ip), vehicle: saline with Tween-80). For the same compound, the survivor count runs as follows: under setting [1], 0 of 6; (dose: 100.0 mg/kg/injection, schedule: Q01DX001 (ip), vehicle: saline with Tween-80) 0 of 3; under setting [2], 0 of 6; (dose: 200.0 mg/kg/injection, schedule: Q01DX001 (ip), vehicle: saline with Tween-80) 0 of 3; (dose: 200.0 mg/kg/injection, schedule: Q04DX003 (ip), vehicle: Klucel (hydroxypropylcellulose) (HPC)) 0 of 6; under setting [3], 0 of 6.

As for `COc1ccc(CC(=O)NCCc2ccccc2)cc1OC`, the survivor count is 3 of 6 (dose: 100.0 mg/kg/injection, schedule: Q04DX003 (ip), vehicle: saline with Tween-80); 0 of 6 under setting [4]; 1 of 6 (dose: 200.0 mg/kg/injection, schedule: Q04DX003 (ip), vehicle: saline with Tween-80); 0 of 6 (dose: 400.0 mg/kg/injection, schedule: Q04DX003 (ip), vehicle: saline with Tween-80).

For `CCCCOC(=O)CNC(=O)N(CC)C(=NCC)c1ccc(NC(=O)c2ccc(C(=O)Nc3ccc(C(=NCC)N(CC)C(=O)NCC(=O)OCCCC)cc3)cc2)cc1`, the T/C (dose: 3.75 mg/kg/injection, schedule: Q01DX015 (ip), vehicle: methylcellulose (MC)) is 130 and 134 % of control [5 of 6 alive]. The survivor count reads like this: (dose: 15.0 mg/kg/injection, schedule: Q01DX015 (ip), vehicle: methylcellulose (MC)) 3 of 6; (dose: 30.0 mg/kg/injection, schedule: Q01DX015 (ip), vehicle: methylcellulose (MC)) 0 of 6; (dose: 62.0 mg/kg/injection, schedule: Q01DX015 (ip), vehicle: methylcellulose (MC)) 0 of 6; (dose: 125.0 mg/kg/injection, schedule: Q01DX015 (ip), vehicle: methylcellulose (MC)) 0 of 6; (dose: 250.0 mg/kg/injection, schedule: Q01DX015 (ip), vehicle: methylcellulose (MC)) 0 of 6; (dose: 500.0 mg/kg/injection, schedule: Q01DX015 (ip), vehicle: methylcellulose (MC)) 0 of 6.

On to `CC1CN=C(c2ccc(NC(=O)Nc3ccc(C(=O)Nc4ccc(C5=NCC(C)N5)cc4)cc3)cc2)N1` (stereo not drawn), for which the T/C (dose: 3.75 mg/kg/injection, schedule: Q01DX Z (ip), vehicle: saline) was 130 % of control. The survivor count by setting is: (dose: 60.0 mg/kg/injection, schedule: Q01DX Z (ip), vehicle: other) 0 of 6; (dose: 120.0 mg/kg/injection, schedule: Q01DX Z (ip), vehicle: other) 0 of 6.

As for `CC(=O)/C(=N\N=C(N)N)c1ccccc1`, the survivor count runs as follows: (dose: 15.0 mg/kg/injection, schedule: Q01DX Z (ip), vehicle: saline) 0 of 6; (dose: 30.0 mg/kg/injection, schedule: Q01DX Z (ip), vehicle: saline) 0 of 6; (dose: 30.0 mg/kg/injection, schedule: Q01DX Z (oral), vehicle: other) 4 of 6; (dose: 60.0 mg/kg/injection, schedule: Q01DX Z (ip), vehicle: saline) 0 of 6; (dose: 120.0 mg/kg/injection, schedule: Q01DX Z (ip), vehicle: saline) 0 of 6.

Turning to `CC1CCC2(C)CCC(C(C)C)C2(O)CC1` (stereo not drawn), the survivor count (dose: 400.0 mg/kg/injection, schedule: Q04DX003 (ip), vehicle: saline sonified) is reported as 3 of 6.

For `OC1C2(CCCCC2)CNC12C=CCCC2` (stereo not drawn), the survivor count under setting [5] is 2 of 6.

`O=C(O)c1ccc(Br)cc1`: the survivor count under setting [6] is on record as 1 of 6.

With `c1ccc([P+](CCC[P+](c2ccccc2)(c2ccccc2)c2ccccc2)(c2ccccc2)c2ccccc2)cc1`, the survivor count is, setting by setting: (dose: 16.0 mg/kg/injection, schedule: Q04DX003 (ip), vehicle: saline) 3 of 6; (dose: 32.0 mg/kg/injection, schedule: Q04DX003 (ip), vehicle: saline) 0 of 6.

As to `COC(=O)/C(=C\c1ccccc1)CNC(C)(C)C`, the survivor count under setting [7] is on record as 0 of 3.

With `NC(=O)c1cn(C2OC(CO)C(O)C2O)c2nc(Cl)nc(N)c12` (stereo not drawn), the survivor count is 4 of 6 (dose: 50.0 mg/kg/injection, schedule: Q01DX009 (ip), vehicle: saline); 6 of 6 (dose: 100.0 mg/kg/injection, schedule: Q01DX009 (ip), vehicle: saline); 0 of 6 (dose: 200.0 mg/kg/injection, schedule: Q01DX009 (ip), vehicle: saline); 0 of 6 (dose: 300.0 mg/kg/injection, schedule: Q01DX009 (ip), vehicle: saline); 1 of 6 under setting [6]. The T/C under setting [1] is 148 % of control and the T/C (dose: 200.0 mg/kg/injection, schedule: Q04DX003 (ip), vehicle: saline) is 148 % of control [5 of 6 alive].

As to `Cc1ccc(C[P+](c2ccccc2)(c2ccccc2)c2ccccc2)cc1`, the survivor count runs as follows: (dose: 16.0 mg/kg/injection, schedule: Q01DX015 (ip), vehicle: saline) 5 of 6; under setting [8], 0 of 6.

In the case of `CCC(CC)(COS(=O)(=O)c1ccc(C)cc1)COS(=O)(=O)c1ccc(C)cc1`, under setting [2], the T/C is 128 % of control.

With `COc1ccc(/C=C/C(=O)c2cc(C(=O)O)c(OC)cc2OC)cc1OC`, under setting [9], the survivor count is on record as 3 of 6.

Consider `ClC1(Cl)C2CC3C4C=CC(C4)C3C21` (stereo not drawn), for which, under “dose: 400.0 mg/kg/injection, schedule: Q01DX001 (ip), vehicle: Klucel (hydroxypropylcellulose) (HPC)”, the survivor count is given as 1 of 6.

With `CCC1=C(CC2NCCc3ccccc32)CC2c3cc(OC)c(OC)cc3CCN2C1` (stereo not drawn), the survivor count under setting [5] is given as 2 of 6.

With `COc1ccccc1CC(C)N` (stereo not drawn), the survivor count by setting is: under setting [8], 2 of 4; (dose: 200.0 mg/kg/injection, schedule: Q01DX001 (ip), vehicle: saline) 0 of 4; under setting [7], 0 of 4.

With `C/C=C/COc1cc[n+]([O-])cc1`, the survivor count under setting [6] is 0 of 6.

In the case of `O/N=C1\CCCc2sccc21`, the survivor count runs as follows: (dose: 100.0 mg/kg/injection, schedule: Q01DX009 (ip), vehicle: Klucel (hydroxypropylcellulose) (HPC)) 6 of 6; (dose: 200.0 mg/kg/injection, schedule: Q01DX009 (ip), vehicle: Klucel (hydroxypropylcellulose) (HPC)) 6 of 6; (dose: 400.0 mg/kg/injection, schedule: Q01DX009 (ip), vehicle: Klucel (hydroxypropylcellulose) (HPC)) 4 of 6.

Consider `C1=C[P+](c2ccccc2)(c2ccccc2)CC[P+]1(c1ccccc1)c1ccccc1`, for which the survivor count (dose: 300.0 mg/kg/injection, schedule: Q01DX001 (ip), vehicle: other) is 0 of 6.

Consider `Nc1nc(-c2ccccc2N=NN2CCN(N=Nc3ccccc3-c3nc(N)c4ccccc4n3)CC2)nc2ccccc12`, for which, under setting [3], the survivor count is given as 3 of 6.

For `O=C1COC(=O)CO1`, for the setting “dose: 400.0 mg/kg/injection, schedule: Q01DX009 (ip), vehicle: saline”, the survivor count was 0 of 6.

For the compound `S=P1(c2ccccc2)Nc2ccccc2N1c1ccccc1` (stereo not drawn), the survivor count (dose: 400.0 mg/kg/injection, schedule: Q04DX002 (ip), vehicle: DMSO) is recorded as 1 of 3.

Turning to `O=C(O)/C=C/C(=O)Nc1ccc(Br)c(Cl)c1`, the survivor count under setting [4] is recorded as 6 of 6 and the survivor count under setting [9] was 0 of 6.

Values taken from PubChem BioAssay AID248 (DTP/NCI, 2004).
